No constants are given. Whether binding was seen depends on the method and setting. Binding seen in cells or lysates may run through a third protein. Some binding calls cover weakened binding; strength is not graded here. Tags and fused reporters may be left off the sequences shown.
Columns and labels:
[1] = biological target: erk1 kinase (cellular, in 10T1/2 and transfected cell lines) (UniProt Q63844); experiment: in vivo co-immunoprecipitation
[2] = biological target: erk1 kinase (cellular, in 10T1/2 and transfected cell lines) (UniProt Q63844); experiment: co-immunoprecipitation from cell lysates, western blot
[3] = biological target: erk1 kinase (cellular, in 10T1/2 and transfected cell lines) (UniProt Q63844); experiment: in vivo co-immunoprecipitation (figure legend)

The chains behind the UniProt entries cited, without tags or fusion partners. Residues count along the entry.
UniProt Q63844, residues 2-380: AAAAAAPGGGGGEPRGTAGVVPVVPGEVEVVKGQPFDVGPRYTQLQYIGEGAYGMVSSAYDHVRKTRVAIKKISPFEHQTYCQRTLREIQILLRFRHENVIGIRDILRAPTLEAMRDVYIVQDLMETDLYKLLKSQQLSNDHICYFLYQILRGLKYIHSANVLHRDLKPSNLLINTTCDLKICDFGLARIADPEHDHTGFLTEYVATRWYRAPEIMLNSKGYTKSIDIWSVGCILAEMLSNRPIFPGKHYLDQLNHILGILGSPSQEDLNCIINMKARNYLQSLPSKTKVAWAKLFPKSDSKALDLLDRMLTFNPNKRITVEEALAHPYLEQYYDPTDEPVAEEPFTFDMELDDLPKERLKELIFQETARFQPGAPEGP

Measured: binding

B1: RHAMM v5 (95 kDa full length murine RHAMM) (receptor, UniProt Q00547 1-794, looked up)
chain: MSFPKAPLKRFNDPSGCAPSPGAYDVKTSEATKGPVSFQKSQRFKNQRESQQNLNIDKDTTLLASAKKAKKSVSKKDSQKNDKDVKRLEKEIRALLQERGTQDKRIQDMESELEKTEAKLNAAVREKTSLSASNASLEKRLTELTRANELLKAKFSEDGHQKNMRALSLELMKLRNKRETKMRSMMVKQEGMELKLQATQKDLTESKGKIVQLEGKLVSIEKEKIDEKCETEKLLEYIQEISCASDQVEKCKVDIAQLEEDLKEKDREILSLKQSLEENITFSKQIEDLTVKCQLLETERDNLVSKDRERAETLSAEMQILTERLALERQEYEKLQQKELQSQSLLQQEKELSARLQQQLCSFQEEMTSEKNVFKEELKLALAELDAVQQKEEQSERLVKQLEEETKSTAEQLTRLDNLLREKEVELEKHIAAHAQAILIAQEKYNDTAQSLRDVTAQLESVQEKYNDTAQSLRDVTAQLESEQEKYNDTAQSLRDVTAQLESEQEKYNDTAQSLRDVTAQLESVQEKYNDTAQSLRDVTAQLESYKSSTLKEIEDLKLENLTLQEKVAMAEKSVEDVQQQILTAESTNQEYARMVQDLQNRSTLKEEEIKEITSSFLEKITDLKNQLRQQDEDFRKQLEEKGKRTAEKENVMTELTMEINKWRLLYEELYEKTKPFQQQLDAFEAEKQALLNEHGATQEQLNKIRDSYAQLLGHQNLKQKIKHVVKLKDENSQLKSEVSKLRSQLVKRKQNELRLQGELDKALGIRHFDPSKAFCHASKENFTPLKEGNPNCC
binds: all assays above
